Results deposited as PubChem BioAssay AID686943 (Drosophila RNAi Screening Center, 2013).

Aim: 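Fly genes whose loss alters ERK activation after insulin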 (primary screen)
Cells: Drosophila S2R+ haemocyte-like cells expressing YFP-tagged ERK (Rolled)
Knock-down reagent: long dsRNA against Drosophila genes
Challenge: insulin stimulation versus unstimulated cells; dose and duration not given
Measured: 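Per-plate z-scores of phospho-ERK immunostaining normalised to YFP-tagged ERK, measured with and without insulin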
Scale: replicate 1, z-score of dpERK with insulin and replicate 2, z-score of dpERK with insulin: higher = more active ERK per ERK-YFP after insulin
The screen tested about 23,000 reagents; shown is an unselected part of those with a known target gene and a result. 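Extra replicates exist only for a retested subset of genes; insulin dose and duration not given; both raised and lowered dpERK matter.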 A plus sign joins genes that one reagent is predicted to hit. Not all columns of the deposit are shown. Not given: the amount of reagent, the time to read-out.

CG31697 [DRSC22273]
- replicate 1, z-score of dpERK with insulin: -0.57
- replicate 2, z-score of dpERK with insulin: 0.81

Rab5 [DRSC00777]
- replicate 1, z-score of dpERK with insulin: -0.55
- replicate 2, z-score of dpERK with insulin: -1.92

CG10038 [DRSC14178]
- replicate 1, z-score of dpERK with insulin: -0.02
- replicate 2, z-score of dpERK with insulin: 0.48

GATAe [DRSC14223]
- replicate 1, z-score of dpERK with insulin: 2.59
- replicate 2, z-score of dpERK with insulin: 1.37

Odc1 [DRSC07482]
- replicate 1, z-score of dpERK with insulin: -0.22
- replicate 2, z-score of dpERK with insulin: -0.37

CG18262 [DRSC18149]
- replicate 1, z-score of dpERK with insulin: -0.99
- replicate 2, z-score of dpERK with insulin: 0.35

tst + CG10375 [DRSC14237]
- replicate 1, z-score of dpERK with insulin: 0.02
- replicate 2, z-score of dpERK with insulin: 0.43

Elys [DRSC19571]
- replicate 1, z-score of dpERK with insulin: -0.53
- replicate 2, z-score of dpERK with insulin: -0.78

RabX5 [DRSC08608]
- replicate 1, z-score of dpERK with insulin: 0.05
- replicate 2, z-score of dpERK with insulin: 0.63

Dyb [DRSC07208]
- replicate 1, z-score of dpERK with insulin: 0.16
- replicate 2, z-score of dpERK with insulin: -0.68

Dyb [DRSC22862]
- replicate 1, z-score of dpERK with insulin: -0.63
- replicate 2, z-score of dpERK with insulin: 0.22

CG5704 [DRSC08572]
- replicate 1, z-score of dpERK with insulin: 0.39
- replicate 2, z-score of dpERK with insulin: -0.11

icln [DRSC07630]
- replicate 1, z-score of dpERK with insulin: -0.03
- replicate 2, z-score of dpERK with insulin: 0.09

CG33477 [DRSC22934]
- replicate 1, z-score of dpERK with insulin: 0.27
- replicate 2, z-score of dpERK with insulin: 0.17

GluRIID [DRSC16723]
- replicate 1, z-score of dpERK with insulin: 0.14
- replicate 2, z-score of dpERK with insulin: 0.43

Dis3l2 [DRSC08496]
- replicate 1, z-score of dpERK with insulin: -0.23
- replicate 2, z-score of dpERK with insulin: -0.07

CG8064 [DRSC16373]
- replicate 1, z-score of dpERK with insulin: 0.16
- replicate 2, z-score of dpERK with insulin: -0.1

bw [DRSC04005]
- replicate 1, z-score of dpERK with insulin: 0.02
- replicate 2, z-score of dpERK with insulin: 0.62

bw [DRSC04677]
- replicate 1, z-score of dpERK with insulin: 0.24
- replicate 2, z-score of dpERK with insulin: 0.38

moody [DRSC18515]
- replicate 1, z-score of dpERK with insulin: 1.04
- replicate 2, z-score of dpERK with insulin: 0.32

GCC88 [DRSC14264]
- replicate 1, z-score of dpERK with insulin: 0.11
- replicate 2, z-score of dpERK with insulin: 0.09

stau [DRSC07698]
- replicate 1, z-score of dpERK with insulin: 0.53
- replicate 2, z-score of dpERK with insulin: 0.41

Smg6 [DRSC16029]
- replicate 1, z-score of dpERK with insulin: -1.4
- replicate 2, z-score of dpERK with insulin: -0.03

CG34292 [DRSC13807]
- replicate 1, z-score of dpERK with insulin: -0.23
- replicate 2, z-score of dpERK with insulin: 0.49

Tsp42Er [DRSC06183]
- replicate 1, z-score of dpERK with insulin: 0.76
- replicate 2, z-score of dpERK with insulin: 0.58

CG8814 [DRSC00707]
- replicate 1, z-score of dpERK with insulin: 0.77
- replicate 2, z-score of dpERK with insulin: -0.07

CG30373 [DRSC05081]
- replicate 1, z-score of dpERK with insulin: 0.55
- replicate 2, z-score of dpERK with insulin: 0.22

CG14304 [DRSC14783]
- replicate 1, z-score of dpERK with insulin: 0.61
- replicate 2, z-score of dpERK with insulin: 0.97

CG18180 [DRSC10304]
- replicate 1, z-score of dpERK with insulin: 0.13
- replicate 2, z-score of dpERK with insulin: -1.32

Ald1 [DRSC14109]
- replicate 1, z-score of dpERK with insulin: -0.56
- replicate 2, z-score of dpERK with insulin: -1.97

l(2)03659 [DRSC07269]
- replicate 1, z-score of dpERK with insulin: -0.16
- replicate 2, z-score of dpERK with insulin: -0.18

l(2)03659 [DRSC07638]
- replicate 1, z-score of dpERK with insulin: -0.53
- replicate 2, z-score of dpERK with insulin: 0.3

Sr-CIV [DRSC00575]
- replicate 1, z-score of dpERK with insulin: 1.02
- replicate 2, z-score of dpERK with insulin: -0.95

rhea [DRSC11300]
- replicate 1, z-score of dpERK with insulin: -0.02
- replicate 2, z-score of dpERK with insulin: 0.84

Tmem43 [DRSC10964]
- replicate 1, z-score of dpERK with insulin: -0.81
- replicate 2, z-score of dpERK with insulin: -1.02

CG11726 [DRSC09858]
- replicate 1, z-score of dpERK with insulin: 0.17
- replicate 2, z-score of dpERK with insulin: 0.28

Kaz [DRSC14637]
- replicate 1, z-score of dpERK with insulin: -1.18
- replicate 2, z-score of dpERK with insulin: -0.5

sicily [DRSC19704]
- replicate 1, z-score of dpERK with insulin: 0.01
- replicate 2, z-score of dpERK with insulin: 0.99

CG43084 [DRSC09998]
- replicate 1, z-score of dpERK with insulin: 1.23
- replicate 2, z-score of dpERK with insulin: -0.29

mirr [DRSC11369]
- replicate 1, z-score of dpERK with insulin: -0.7
- replicate 2, z-score of dpERK with insulin: -0.73

5 entries from above, reduced to “replicate 2, z-score of dpERK with insulin”.
Dyb [DRSC07208] = -0.68
Dyb [DRSC22862] = 0.22
CG5704 [DRSC08572] = -0.11
icln [DRSC07630] = 0.09
CG33477 [DRSC22934] = 0.17
